The test has as its target Sortilin-tdTomato (human) (UniProt Q99523). Kind of test: FRET or BRET; FLIM: HeLa cells transfected with BDNF-GFP (donor) cocultured with HeLa, HEK293 or SH-SY5Y cells transfected with tdTomato-tagged receptors or tdTomato-GluA2 (acceptor), fixed with 4% PFA; lifetime of GFP measured pixel by pixel; reference: HeLa cells expressing BDNF-GFP alone. (In general: BRET reads energy transfer from a luciferase to a nearby fluorophore.)

Sequences of proteins named here, by UniProt entry; tags and fusion partners are left off. Residues count along the entry.
UniProt Q99523, residues 78-831: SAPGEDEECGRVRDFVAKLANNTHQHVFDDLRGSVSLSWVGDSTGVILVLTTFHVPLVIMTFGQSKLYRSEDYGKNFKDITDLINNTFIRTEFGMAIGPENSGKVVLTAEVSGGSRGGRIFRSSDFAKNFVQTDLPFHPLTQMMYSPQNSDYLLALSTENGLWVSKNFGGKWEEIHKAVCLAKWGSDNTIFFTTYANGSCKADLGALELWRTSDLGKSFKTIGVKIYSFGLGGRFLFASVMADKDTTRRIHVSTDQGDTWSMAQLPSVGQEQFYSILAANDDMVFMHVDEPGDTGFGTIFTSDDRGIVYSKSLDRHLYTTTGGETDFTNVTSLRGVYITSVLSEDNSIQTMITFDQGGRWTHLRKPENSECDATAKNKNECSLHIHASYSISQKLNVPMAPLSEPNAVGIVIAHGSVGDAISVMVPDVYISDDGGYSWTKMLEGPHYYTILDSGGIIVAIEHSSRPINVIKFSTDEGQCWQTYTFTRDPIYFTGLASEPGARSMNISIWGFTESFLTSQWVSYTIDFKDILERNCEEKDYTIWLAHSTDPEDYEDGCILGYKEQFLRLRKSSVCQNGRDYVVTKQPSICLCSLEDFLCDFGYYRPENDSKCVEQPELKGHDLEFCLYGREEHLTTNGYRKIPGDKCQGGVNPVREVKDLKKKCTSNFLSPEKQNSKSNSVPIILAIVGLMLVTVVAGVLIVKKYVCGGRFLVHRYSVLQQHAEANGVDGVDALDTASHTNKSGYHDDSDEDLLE

These are yes or no findings as the source states them, for the method shown. Binding seen in cells or lysates may run through a third protein. Some binding calls cover weakened binding; strength is not graded here. Tags and fused reporters may be left off the sequences shown.

B1: BDNF-GFP (ligand, UniProt P23560 19-247)
chain: APMKEANIRGQGGLAYPGVRTHGTLESVNGPKAGSRGLTSLADTFEHVIEELLDEDQKVRPNEENNKDADLYTSRVMLSSQVPLEPPLLFLLEEYKNYLDAANMSMRVRRHSDPARRGELSVCDSISEWVTAADKKTAVDMSGGTVTVLEKVPVSKGQLKQYFYETKCNPMGYTKEGCRGIDKRHWNSQCRTTQSYVRALTMDSKKRIGWRFIRIDTSCVCTLTIKRGR
For B1, the binding entry was “binds”.

For the origin of these results see PMC10540051.
